Measured values: article PMC9887883, “A family of C. elegans VASA homologs control Argonaute pathway specificity and promote transgenerational silencing”
Where a chain is given by its changes, count along the chain named. A weaker result is weaker than the reference pair of the same experiment. Tags and fusion partners may be left off the protein sequences shown. For part of these data: Construct, isoform or probe ends are uncertain for at least one entry. For part of these data: At least one verdict was read from the data and is not stated in words by the source.

What was measured:
Assay in all cases: EMSA
[1] = target: T1, GLH-1 WT (Caenorhabditis elegans) (UniProt P34689); conditions: 2 mM MgCl2, 10 uM protein, 2 uM RNA, with and without 2 mM ATP; 25 mM HEPES pH 7.4, 150 mM NaCl, 2 mM MgCl2, +/- 2 mM ATP, 30 min at RT; native 8% PAGE in TBE, cold room; recombinant protein; residues 1-763; protein details: FLAG; label: 5'-Cy3 (Methods), legend of Fig 5F says 5'-FAM
T1 sequence (looked up): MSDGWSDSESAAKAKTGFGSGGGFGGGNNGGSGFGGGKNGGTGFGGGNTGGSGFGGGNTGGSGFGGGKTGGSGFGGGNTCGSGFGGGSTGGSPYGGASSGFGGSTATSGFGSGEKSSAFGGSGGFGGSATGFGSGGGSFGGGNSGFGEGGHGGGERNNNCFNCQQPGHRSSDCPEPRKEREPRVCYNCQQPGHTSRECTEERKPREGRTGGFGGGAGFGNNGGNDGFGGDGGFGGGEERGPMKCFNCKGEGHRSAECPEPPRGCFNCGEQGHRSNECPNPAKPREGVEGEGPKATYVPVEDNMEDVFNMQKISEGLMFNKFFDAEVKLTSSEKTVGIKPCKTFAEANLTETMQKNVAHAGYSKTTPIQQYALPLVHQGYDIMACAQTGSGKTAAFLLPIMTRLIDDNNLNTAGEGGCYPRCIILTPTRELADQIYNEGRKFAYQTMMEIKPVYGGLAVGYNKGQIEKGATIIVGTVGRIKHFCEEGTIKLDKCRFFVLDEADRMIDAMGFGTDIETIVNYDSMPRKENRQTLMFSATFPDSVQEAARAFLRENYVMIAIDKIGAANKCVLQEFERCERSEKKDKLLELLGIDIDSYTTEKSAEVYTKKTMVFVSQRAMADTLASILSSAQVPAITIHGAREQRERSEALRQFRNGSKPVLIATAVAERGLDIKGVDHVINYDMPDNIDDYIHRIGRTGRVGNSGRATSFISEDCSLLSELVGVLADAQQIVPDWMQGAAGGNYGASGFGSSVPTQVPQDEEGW

[2] = target: T2, GLH-1(DQAD) E500Q (Caenorhabditis elegans) (UniProt P34689); conditions: no ATP, 2 mM MgCl2, 10 uM protein, 2 uM RNA; 25 mM HEPES pH 7.4, 150 mM NaCl, 2 mM MgCl2, +/- 2 mM ATP, 30 min at RT; native 8% PAGE in TBE, cold room; recombinant protein; protein details: FLAG; label: 5'-Cy3 (Methods), legend of Fig 5F says 5'-FAM
T2 sequence (looked up, limits assumed): T1 sequence (looked up) with E500Q

[3] = target: T3, GLH-1(K391A) (Caenorhabditis elegans) (UniProt P34689); conditions: 2 mM MgCl2, 10 uM protein, 2 uM RNA, with and without 2 mM ATP; 25 mM HEPES pH 7.4, 150 mM NaCl, 2 mM MgCl2, +/- 2 mM ATP, 30 min at RT; native 8% PAGE in TBE, cold room; recombinant protein; residues 1-763; protein details: FLAG; label: 5'-Cy3 (Methods), legend of Fig 5F says 5'-FAM
T3 sequence (looked up): T1 sequence (looked up) with K391A

Measured: binding result

GUCAAAGAUAGCCUUGACCUUG [22-nt ssRNA oligo]
binds more weakly: all assays above
